No constants are given. Whether binding was seen depends on the method and setting. Some binding calls cover weakened binding; strength is not graded here. Sequences can lack the tags named with a protein. No end group written: not given here. *: point of attachment. Acm = CC(=O)NC*
Columns and labels:
Thrombospondin (TSP-1) [1] = biological target: Thrombospondin (TSP-1) (UniProt P07996); experiment: resonant mirror biosensor, peptide alone on immobilized TSP-1
Thrombospondin (TSP-1) [2] = biological target: Thrombospondin (TSP-1) (UniProt P07996); experiment: resonant mirror biosensor, immobilized TSP-1 (FIG. 10)

Protein sequences, listed by entry. Tags and fused reporters are not part of them. Residues count along the entry.
UniProt P07996, residues 19-1170: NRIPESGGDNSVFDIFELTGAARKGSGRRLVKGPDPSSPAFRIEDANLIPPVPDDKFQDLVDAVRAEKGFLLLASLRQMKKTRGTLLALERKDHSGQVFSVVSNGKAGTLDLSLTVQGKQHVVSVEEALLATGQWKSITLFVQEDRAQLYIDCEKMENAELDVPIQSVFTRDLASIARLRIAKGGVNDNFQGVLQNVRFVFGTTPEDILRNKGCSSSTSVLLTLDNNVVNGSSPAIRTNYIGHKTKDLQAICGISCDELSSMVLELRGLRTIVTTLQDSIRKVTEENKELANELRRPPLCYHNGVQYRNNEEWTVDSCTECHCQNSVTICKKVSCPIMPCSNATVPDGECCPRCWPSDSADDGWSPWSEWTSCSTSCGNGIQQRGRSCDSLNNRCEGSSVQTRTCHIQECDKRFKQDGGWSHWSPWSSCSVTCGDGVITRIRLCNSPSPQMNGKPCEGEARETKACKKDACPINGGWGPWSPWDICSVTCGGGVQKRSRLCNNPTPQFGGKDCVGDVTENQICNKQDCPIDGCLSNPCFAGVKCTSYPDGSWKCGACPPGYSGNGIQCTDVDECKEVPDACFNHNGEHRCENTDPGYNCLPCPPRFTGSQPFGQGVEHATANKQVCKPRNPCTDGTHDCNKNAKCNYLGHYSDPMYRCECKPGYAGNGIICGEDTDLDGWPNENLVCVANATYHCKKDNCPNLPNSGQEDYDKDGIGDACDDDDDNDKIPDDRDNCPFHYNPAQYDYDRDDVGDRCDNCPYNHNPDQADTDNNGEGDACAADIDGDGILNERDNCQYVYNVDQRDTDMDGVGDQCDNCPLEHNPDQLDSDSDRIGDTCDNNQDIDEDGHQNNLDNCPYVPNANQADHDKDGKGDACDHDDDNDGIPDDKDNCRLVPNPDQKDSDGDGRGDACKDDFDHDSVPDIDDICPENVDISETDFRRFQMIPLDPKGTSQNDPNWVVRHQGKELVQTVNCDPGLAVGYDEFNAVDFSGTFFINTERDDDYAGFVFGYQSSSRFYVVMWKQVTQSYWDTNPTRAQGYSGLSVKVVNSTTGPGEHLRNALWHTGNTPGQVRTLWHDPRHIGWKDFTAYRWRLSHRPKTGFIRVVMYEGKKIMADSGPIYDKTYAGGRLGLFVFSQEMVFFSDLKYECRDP

binding (Thrombospondin (TSP-1) [1]): binds
binding (Thrombospondin (TSP-1) [2]): binds
Binder: VCHSKTR (Cys(Acm) at position 2) [Val-Cys(Acm)-His-Ser-Lys-Thr-Arg (SEQ ID NO: 9)]
